From ChEMBL document CHEMBL3988442, “University of Dundee, Small-Polar-MMV Screening Library” (2021).

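Assay of Toxoplasma gondii numbers, read through their beta-galactosidase reporter with a colour substrate. Compounds at 50 µM. The record gives no direction; the compounds picked for IC50 retests had high values, so higher reads as fewer parasites. About 18,000 compounds were tested under these conditions; 0.94% (about 170) showed 50% or more at least once.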

Results are given as percent effect.
How 0% and 100% were set is not recorded. Most values in the screen are low, and negative values occur.
Compounds were drawn at random from those tested, without regard to their results.

COCCn1ccnc1CN(C)Cc1nnc(C)o1 read -12.68%.
Cc1ccc(Cl)cc1NC(=O)CN1CCC(O)CC1 read -2.559%.
FC(F)(F)c1cccc(NCc2cccnc2)n1 read 4.78%.
COc1ccc(OC2CCNCC2)nc1 read -8.382%.
CC(C)(C(=O)N1CC[S+]([O-])C(C)(C)C1)c1ccccc1 (stereo unspecified) read -17.9%.
NC(=O)c1cccc(CSc2ccncc2)c1 read 9.928%.
CN(CC(N)=O)Cc1ncc(-c2ccccc2)o1 read -21.94%.
Cn1ccc(CNC(=O)c2cc3ncc(Br)cn3n2)n1 read -38.01%.
CC(=O)c1cccc(S(=O)(=O)N(C)CC(=O)N(C)C)c1 read 27.09%.
Cc1ncsc1C(=O)NC(CCO)C(C)(C)C (stereo unspecified) read -9.73%.
Cc1ccccc1C(O)C1CCNCC1 (stereo unspecified) read 34.95%.
NCC(=O)N1CCCC(CCc2ccccc2F)C1 (stereo unspecified) read 12.54%.
Cc1cnccc1CNC(=O)CN1CCC(N(C)C)C1 (stereo unspecified) read -8.487%.
O=C(NC(c1ccccn1)C(F)(F)F)C1CCOCC1 (stereo unspecified) read -13.93%.
CCc1nnc(CN2CCSCC2c2cnn(C)c2)o1 (stereo unspecified) read 6.724%.
CCO[C@H]1CN(Cc2snnc2C(C)C)C[C@@H]1O read -17.15%.
Cc1c(C(=O)NC(C)C)nnn1Cc1ccccc1 read 17.24%.
CC(C)(C)c1nc(CN2CC[C@H](CO)[C@H](O)C2)no1 read 10.59%.
CCc1cccc(C)c1NC(=O)CN1CCNC(=O)C1 read -0.5853%.
CC(C)(C)NC(=O)CNC1CCCc2occc21 (stereo unspecified) read -2.385%.
O=C(NCc1cc[nH]n1)c1ccccc1C(F)(F)F read -5.417%.
CN1CCC(CN(C)C(=O)Cc2ccsc2)C1 (stereo unspecified) read -9.972%.
CC(=O)Nc1ccc(CNC(=O)C(C)C)cc1 read -22.94%.
CNC1CCCN(Cc2noc(C)n2)C1 (stereo unspecified) read -12.37%.
CC(C)N(CC(C)(C)O)C(=O)NCC1CCCO1 (stereo unspecified) read -6.096%.
CNC(=O)NCCc1c[nH]c2ncccc12 read 0.2309%.
CO[C@@H]1COCC[C@H]1NC(=O)C1CCOCC1 read 8.729%.
COc1ccc2c(c1)OCC(CNC(=O)CN(C)C)C2 (stereo unspecified) read -14.58%.
CC(C)c1ccc2c(c1)C(N)C(=O)N2 (stereo unspecified) read 2.838%.
Cc1cc(C(=O)NCCCNc2ccccn2)no1 read 40.07%.
CNC(=O)[C@@H]1Cc2ccccc2N1 read -2.713%.
OC1CCCN(Cc2nc(-c3ccsc3)no2)C1 (stereo unspecified) read 2.648%.
Cc1cc(N(C)C)nc(N2CCCC2C(=O)N(C)C)n1 (stereo unspecified) read 13.09%.
Cn1cc(C#N)cc1C(=O)NCC[C@@H]1CCCN1 read 2.79%.
NC1CC(=O)N(c2ccccc2)C1 (stereo unspecified) read -1.701%.
Cc1cc(=O)n(CCN2CCC[C@@H]2CO)c(=O)[nH]1 read 0.3696%.
OC1CCCn2ccnc21 (stereo unspecified) read -12.32%.
Cc1cnc(C(=O)N(C)Cc2cc(C)on2)cn1 read 11.49%.
O=C(CN(C1CCCC1)C1CC1)N1CCNC1=O read 2.031%.
O=S1(=O)N=C(NCCCO)c2ccccc21 read -3.306%.
Cc1ocnc1C(=O)NCCNC(=O)c1cccnc1 read 9.965%.
Cc1cnc(N)nc1-c1ccccc1 read 4.604%.
CC(CO)NC(=O)CN(c1cccc(F)c1)S(C)(=O)=O (stereo unspecified) read 1.452%.
O=C(Cc1cccc(O)c1)N1CCCC1 read 5.54%.

Once more, the final 4:

SMILES,percent effect
Cc1ocnc1C(=O)NCCNC(=O)c1cccnc1,9.965
Cc1cnc(N)nc1-c1ccccc1,4.604
CC(CO)NC(=O)CN(c1cccc(F)c1)S(C)(=O)=O (stereo unspecified),1.452
O=C(Cc1cccc(O)c1)N1CCCC1,5.54